These are yes or no findings as the source states them, for the method shown. Binding seen in cells or lysates may run through a third protein. These calls come from enrichment with a bait or labelling near it, and not all partners need be listed. Tags and fused reporters may be left off the sequences shown.
T1: BIN4/MID-YFP (YFP-tagged BIN4/MID in the mid-1 35S:BIN4/MID-YFP line) (Arabidopsis thaliana) (UniProt Q9FLU1)
T1 sequence: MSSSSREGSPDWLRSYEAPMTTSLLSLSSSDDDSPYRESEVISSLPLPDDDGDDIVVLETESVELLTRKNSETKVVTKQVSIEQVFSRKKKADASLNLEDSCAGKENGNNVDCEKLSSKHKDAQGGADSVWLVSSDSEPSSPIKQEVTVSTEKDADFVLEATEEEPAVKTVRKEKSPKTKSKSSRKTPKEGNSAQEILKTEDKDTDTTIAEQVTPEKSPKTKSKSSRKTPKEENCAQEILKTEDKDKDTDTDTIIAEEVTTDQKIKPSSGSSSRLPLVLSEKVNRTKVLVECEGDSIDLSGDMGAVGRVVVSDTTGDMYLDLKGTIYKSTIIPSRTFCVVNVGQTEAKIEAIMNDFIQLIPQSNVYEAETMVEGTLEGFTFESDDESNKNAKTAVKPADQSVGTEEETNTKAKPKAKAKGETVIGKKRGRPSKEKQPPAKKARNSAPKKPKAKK

Chains of the proteins cited; added tags and fusions are not shown.
UniProt Q9SJL8: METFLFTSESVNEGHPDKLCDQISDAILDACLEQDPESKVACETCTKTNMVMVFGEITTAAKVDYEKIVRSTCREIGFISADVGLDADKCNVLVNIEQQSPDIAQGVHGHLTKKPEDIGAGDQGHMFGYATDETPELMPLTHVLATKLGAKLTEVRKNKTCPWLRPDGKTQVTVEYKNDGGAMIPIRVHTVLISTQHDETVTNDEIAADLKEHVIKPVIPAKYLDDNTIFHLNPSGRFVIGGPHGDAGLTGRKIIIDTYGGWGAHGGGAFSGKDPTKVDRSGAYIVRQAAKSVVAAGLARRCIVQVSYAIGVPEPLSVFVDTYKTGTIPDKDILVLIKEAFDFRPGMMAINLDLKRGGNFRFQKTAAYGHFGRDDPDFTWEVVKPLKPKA

B1: RHL1 (ROOT HAIRLESS 1), endogenous (protein, UniProt O81242 1-355)
chain: MVRASSSKKGGSKGGDKDDAESKQRKRLKTLALDNQLLSDSPAKSHSSLKPSKQVLKHHGTDIIRKSQRKNRFLFSFPGLLAPISAATIGDLDRLSTKNPVLYLNFPQGRMKLFGTILYPKNRYLTLQFSRGGKNVLCDDYFDNMIVFSESWWIGTKEENPEEARLDFPKELAQAENTEFDFQGGAGGAASVKKLASPEIGSQPTETDSPEVDNEDVLSEDGEFLDDKIQVTPPVQLTPPVQVTPVRQSQRNSGKKFNFAETSSEASSGESEGNTSDEDEKPLLEPESSTRSREESQDGNGITASASKLPEELPAKREKLKSKDSKLVQATLSNLFKKAEEKTAGTSKAKSSSKA
B2: TOP6B (Topoisomerase VI B subunit), endogenous (protein, UniProt Q9C5V6 1-670)
chain: MAGDDLVETKKGSSKNSKDSNESKLKQKSPAEFFAENKNIAGFDNPGKSLYTTVRELVENALDSAESISELPEVEVTIEEIVKSKFNSMIGLIDRERVDTQLYDDYETEKARGKRLAKEARASEIQAKNLASGKKNKEPGVSKVLKARGEASYYKVTCKDNGKGMPHDDIPNMFGRVLSGTKYGLKQTRGKFGLGAKMALIWSKMSTGLPIEISSSMKSQNYVTFCRLDIDIHRNIPHIHLHEKKGNKEKWHGAEIQVVIEGNWTTYRSKILHYMRQMAVITPYAQFLFRFISETPEKNVTIKFTRRTDVMPPIPIETKHHPSSVDLLLIKRLITDTSKKTLLQFLQNEFVNINKTLAARLIGEMGPDFGPSMAVKSVTSQQMVRIHQLFRQAKFDDPSGDCLSPAGEYNLRLGIIKELHPDMVATYSGSAQVFEGHPFIVEAGVSLGGRDVKQGINIFRFANRIPLLFEQGADVVTRTALKRINWNSYKINQTQDKIGVFVSIVSTKIPFKGTGKEYIGDDISEIATAVKSAIQQCCIQLKSKIVKRLQAREQQERKRSLSRYIPDATGAVYEVLKQMTEEHKTKRKRYGEEDIVMLDKVSKQIITKETLKEKLAEHVEQVDYEMALEYATQSGVSEEPRENIYLQHLDPNKSNFIDLHSPTFVFRLML

Biological target: T1, BIN4/MID-YFP (YFP-tagged BIN4/MID in the mid-1 35S:BIN4/MID-YFP line) (Arabidopsis thaliana)
Test: affinity purification with mass spectrometry

Question: For “Methionine Adenosyltransferase 3 (MAT3), endogenous (from UniProt Q9SJL8 1-390) (enzyme)”, which binding is on record?
Answer: binds

Question: For B1, which binding is on record?
Answer: binds

Question: Which binding does the source give for B2 here?
Answer: binds

Source: publication doi:10.1101/829416
